PubChem BioAssay AID504795 | Drosophila RNAi Screening Center, 2011

Assay: 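Genes required for normal axon extension and glial cell shape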 (primary screen)
System: primary Drosophila neurons and glia
Knock-down reagent: long dsRNA against Drosophila genes, 250 ng dsRNA per well
Duration: one week
Measured: 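Descriptive morphology terms assigned by visual inspection of live automated images of GFP-marked cells, taken one week after adding 250 ng dsRNA per well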
The reagents shown are a selection, not the whole library. 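Every listed dsRNA shows some phenotype; how reagents were selected for listing is not stated.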 Names joined by + are all predicted targets of the reagent.

gene | DRSC id | phenotype seen, replicate 1
CG10950 | DRSC06020 | abnormal cell clusters
Lrt | DRSC06045 | axon bundles split apart
CG34196 | DRSC05704 | axon bundles split apart
bero | DRSC03211 | too many neurite branches
CG17375 | DRSC02614 | more self-contacts of neurites
Arms | DRSC03856 | abnormal cell clusters
Arms | DRSC03857 | axon bundles split apart
CG42502 + CG10570 | DRSC02071 | too many neurite branches
Spase22-23 | DRSC15857 | cell fragments present
RnrL | DRSC03413 | axon bundles split apart
CG10638 | DRSC09762 | too many neurite branches
tsr | DRSC04718 | too many neurite branches
CG11398 | DRSC18625 | too many neurite branches
boca | DRSC06408 | abnormal cell clusters
bdg | DRSC07136 | too many neurite branches
Hsp70Aa + Hsp70Bb + Hsp70Ba + 3 more | DRSC15380 | too many neurite branches
CG34315 + Orc3 | DRSC07642 | abnormal cell clusters
CG13995 | DRSC00907 | sheet-like cell extensions
CG31551 | DRSC22403 | too many neurite branches
CG7785 | DRSC16311 | axon bundles split apart
CG13250 | DRSC11698 | axon bundles split apart
CG15036 | DRSC17968 | axon bundles split apart
CG15308 | DRSC17995 | axon bundles split apart
CG33262 | DRSC22893 | axon bundles split apart
CG14995 | DRSC08452 | too many neurite branches
brv2 | DRSC10226 | abnormal cell clusters
Sqor | DRSC08453 | axon bundles split apart
CG31848 | DRSC01309 | axon bundles split apart
CG14459 | DRSC11719 | too many neurite branches
tfc | DRSC21704 | abnormal cell clusters
CG13022 | DRSC09902 | axon bundles split apart
RpS27 | DRSC14244 | cell fragments present
Slc25A46a | DRSC20125 | axon bundles split apart
CG8301 | DRSC16405 | too many neurite branches
CG34426 | DRSC09977 | too many neurite branches
CG31464 | DRSC14345 | too many neurite branches
Obp83cd | DRSC12267 | axon bundles split apart
CG34001 | DRSC09042 | abnormal cell clusters
cv-d | DRSC16526 | too many neurite branches
EMC4 | DRSC11638 | abnormal cell clusters
CG5339 | DRSC04496 | reduced axon outgrowth
Muc18B | DRSC20064 | too many neurite branches
Fer2LCH | DRSC16672 | too many neurite branches
Muc11A | DRSC19498 | too many neurite branches
Skp2 + CG1103 | DRSC22356 | too many neurite branches
CG1738 | DRSC19772 | too many neurite branches
moody | DRSC18515 | sheet-like cell extensions
CG15635 | DRSC00470 | reduced axon outgrowth
Tpr2 | DRSC03461 | reduced axon outgrowth
CAP | DRSC05215 | too many neurite branches
mRpL18 | DRSC06142 | beaded; swollen axons
CG34056 | DRSC08374 | abnormal cell clusters
Muc68E | DRSC09146 | too many neurite branches
CG15005 | DRSC08459 | axon bundles split apart
trol | DRSC18613 | abnormal cell clusters
trol | DRSC18814 | axon bundles split apart
Sema1b | DRSC07550 | abnormal cell clusters
Rcd-1 | DRSC19569 | too many neurite branches
B-H2 | DRSC19335 | abnormal cell clusters
CG11317 | DRSC14299 | axon bundles split apart
CG10631 | DRSC02081 | axon bundles split apart
CG31743 + CG34313 | DRSC02781 | axon bundles split apart
fz2 | DRSC10087 | abnormal cell clusters
CG6610 | DRSC10674 | axon bundles split apart
dec | DRSC21477 | too many neurite branches
cic | DRSC16918 | sheet-like cell extensions
ACXA | DRSC00844 | abnormal cell clusters
Act57B | DRSC04042 | too many neurite branches
CG9222 | DRSC03158 | too many neurite branches
Prosalpha4 | DRSC20271 | abnormal cell clusters
CG6951 | DRSC10755 | too many neurite branches
dbo | DRSC11339 | abnormal cell clusters
CG6503 | DRSC16056 | abnormal cell clusters
alphaTub84D | DRSC12623 | reduced axon outgrowth
CG14321 | DRSC14800 | sheet-like cell extensions
CG13717 (retired record) | DRSC21337 | too many neurite branches
CG13003 | DRSC19522 | sheet-like cell extensions
ATPsynC | DRSC15236 | too many neurite branches
CG13801 | DRSC08335 | too many neurite branches
CG12279 | DRSC14495 | axon bundles split apart
CG15452 | DRSC20523 | sheet-like cell extensions
ORY | DRSC22883 | axon bundles split apart
Klp64D | DRSC11204 | axon bundles split apart
Polr2G | DRSC16068 | too many neurite branches
CG31368 | DRSC14949 | abnormal cell clusters
CG15143 | DRSC02444 | cell fragments present
scaf6 | DRSC10678 | axon bundles split apart
Srpk79D | DRSC11856 | reduced axon outgrowth
Naa30B | DRSC08245 | beaded; swollen axons
lncRNA:CR32661 | DRSC19794 | too many neurite branches
psq | DRSC07668 | sheet-like cell extensions
Rpp30 | DRSC00320 | axon bundles split apart
shrb | DRSC07061 | cell fragments present
CG14200 | DRSC19555 | sheet-like cell extensions
ath | DRSC02788 | cell fragments present
exp | DRSC06313 | axon bundles split apart
mRpS33 | DRSC14239 | axon bundles split apart
CG7369 | DRSC11822 | axon bundles split apart
akirin | DRSC11000 | cell fragments present
eIF4A | DRSC03526 | beaded; swollen axons
hep | DRSC19839 | abnormal cell clusters
hep | DRSC20337 | abnormal cell clusters
CG18747 | DRSC15384 | axon bundles split apart
CG13895 | DRSC08365 | abnormal cell clusters
CG15657 | DRSC04248 | axon bundles split apart
pyx | DRSC08511 | too many neurite branches
Cad96Cb | DRSC14243 | too many neurite branches
CG8249 | DRSC07125 | axon bundles split apart
CG8483 | DRSC16430 | too many neurite branches
